Source: PMC12573823
Results are given in words; binding and its absence hold for the method and conditions named. In cells and extracts the contact can be indirect. Some entries that bind do so weakly or less than the wild type.

Amino acid sequences for entries named in this document (tags omitted).
UniProt Q8R4B8: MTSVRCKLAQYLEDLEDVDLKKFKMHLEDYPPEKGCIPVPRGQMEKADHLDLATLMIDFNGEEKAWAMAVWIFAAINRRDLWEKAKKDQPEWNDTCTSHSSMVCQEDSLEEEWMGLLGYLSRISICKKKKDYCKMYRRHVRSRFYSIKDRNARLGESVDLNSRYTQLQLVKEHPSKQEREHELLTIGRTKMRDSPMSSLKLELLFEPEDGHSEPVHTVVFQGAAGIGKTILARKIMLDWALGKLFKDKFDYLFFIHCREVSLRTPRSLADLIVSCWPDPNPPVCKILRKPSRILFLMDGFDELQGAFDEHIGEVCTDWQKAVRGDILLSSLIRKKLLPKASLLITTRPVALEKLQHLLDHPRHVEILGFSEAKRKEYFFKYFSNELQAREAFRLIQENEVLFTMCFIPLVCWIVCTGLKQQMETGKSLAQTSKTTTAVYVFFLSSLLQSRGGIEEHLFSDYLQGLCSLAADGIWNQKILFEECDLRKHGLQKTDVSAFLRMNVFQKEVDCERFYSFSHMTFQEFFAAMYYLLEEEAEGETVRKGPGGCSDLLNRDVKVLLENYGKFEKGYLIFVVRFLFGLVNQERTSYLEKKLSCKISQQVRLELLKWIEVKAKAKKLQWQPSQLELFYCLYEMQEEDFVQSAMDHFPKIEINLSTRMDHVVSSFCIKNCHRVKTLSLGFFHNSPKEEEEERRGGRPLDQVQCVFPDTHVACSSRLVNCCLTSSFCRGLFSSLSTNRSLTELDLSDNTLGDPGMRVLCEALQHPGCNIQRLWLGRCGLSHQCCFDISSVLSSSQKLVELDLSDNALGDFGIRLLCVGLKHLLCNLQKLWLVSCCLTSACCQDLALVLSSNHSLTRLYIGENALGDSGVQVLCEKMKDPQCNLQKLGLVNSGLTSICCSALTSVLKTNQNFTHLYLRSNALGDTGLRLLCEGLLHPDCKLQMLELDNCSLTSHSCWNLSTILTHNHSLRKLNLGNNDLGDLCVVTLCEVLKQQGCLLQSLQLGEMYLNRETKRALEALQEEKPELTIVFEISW

B1: Double-stranded RNA-dependent protein kinase (PKR) (protein, UniProt Q03963 1-515)
chain: MASDTPGFYMDKLNKYRQMHGVAITYKELSTSGPPHDRRFTFQVLIDEKEFPEAKGRSKQEARNAAAKLAVDILDNENKVDCHTSASEQGLFVGNYIGLVNSFAQKKKLSVNYEQCEPNSELPQRFICKCKIGQTMYGTGSGVTKQEAKQLAAKEAYQKLLKSPPKTAGTSSSVVTSTFSGFSSSSSMTSNGVSQSAPGSFSSENVFTNGLGENKRKSGVKVSPDDVQRNKYTLDARFNSDFEDIEEIGLGGFGQVFKAKHRIDGKRYAIKRVKYNTEKAEHEVQALAELNHVNIVQYHSCWEGVDYDPEHSMSDTSRYKTRCLFIQMEFCDKGTLEQWMRNRNQSKVDKALILDLYEQIVTGVEYIHSKGLIHRDLKPGNIFLVDERHIKIGDFGLATALENDGKSRTRRTGTLQYMSPEQLFLKHYGKEVDIFALGLILAELLHTCFTESEKIKFFESLRKGDFSNDIFDNKEKSLLKKLLSEKPKDRPETSEILKTLAEWRNISEKKKRNTC

Tests used:
[1] = molecular target: T1, Double-stranded RNA-dependent protein kinase (PKR) (mouse (endogenous in mouse NP cells)) (UniProt Q03963); test: co-IP; mouse NP cell (PKR+/+) lysates; immunoprecipitation with anti-PKR antibody and reciprocal immunoprecipitation of NLRP3, Western blot; also cells treated with palmitic acid (more complex) or palmitic acid with the PKR inhibitor 2-AP (complex formation markedly restrained)
T1 sequence: B1 chain

[2] = molecular target: NLRP3 (mouse (endogenous in mouse NP cells)) (UniProt Q8R4B8); test: as above

| Molecule | binding [1] | binding [2] |
| --- | --- | --- |
| NLRP3 (from UniProt Q8R4B8 1-1033) | binds |  |
| B1 |  | binds |
